Test in all cases: peptide or protein array; PepSpots membrane of 13-mer Has1 peptides overlapping by 10 residues, incubated with 2 μM purified ClpGGI N1 domain for 30 min at RT in buffer C (10 mM Tris pH 7.5, 150 mM KCl, 20 mM MgCl2, 5% sucrose, 0.005% Tween 20); bound N1 electrotransferred to PVDF and detected with N1-specific polyclonal antibodies; both purified
Test [1] addresses T1, Peptide 92 (S. cerevisiae).
T1 sequence (peptide): KRFLLLFSFLKRN

Test [2] concerns the target T2, peptide 134 (S. cerevisiae).
T2 sequence (peptide): FLRYLKASKVPLN

Test [3] has as its target T3, peptide 2 (S. cerevisiae).
T3 sequence (peptide): SNKRSRDSESTEE

These are yes or no findings as the source states them, for the method shown. For part of these data: Binding calls can cover weak binding; strength is not graded here.

Regarding “N1–domain–ClpGGI (P. aeruginosa) (domain or fragment)”, the binding result in test [1] was “binds”; in test [2], “binds”; in test [3], “no binding (tested: 2 μM)”.

Source of the values: PMC8024975.
